# Assay results from article PMC3420021, “Crystallographic Analysis of Polypyrimidine Tract-Binding Protein-Raver1 Interactions Involved in Regulation of Alternative Splicing” (Structure(London, England:1993), 2011).
# By UniProt entry, the sequences of proteins in these tests, tags left out. Where a name states a change or a piece, a line headed by the entry shows the natural chain unless it says otherwise. Chains listed by the source or under a name are the forms on record and can include a tag or linker. Residues count along the entry.
# GST-PTB RRM2 (residues 181-284), wild type (P26599, residues 181-284): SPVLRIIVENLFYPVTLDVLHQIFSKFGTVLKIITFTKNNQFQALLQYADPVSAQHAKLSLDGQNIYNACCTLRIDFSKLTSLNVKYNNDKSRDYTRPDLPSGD
# GST-PTB RRM2 (residues 181-284), mutant K271A (P26599, form named): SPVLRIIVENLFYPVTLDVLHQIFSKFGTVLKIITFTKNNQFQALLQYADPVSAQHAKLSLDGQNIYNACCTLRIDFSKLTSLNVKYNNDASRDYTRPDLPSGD
# GST-PTB RRM2 (residues 181-284), mutant Y247Q (P26599, form named): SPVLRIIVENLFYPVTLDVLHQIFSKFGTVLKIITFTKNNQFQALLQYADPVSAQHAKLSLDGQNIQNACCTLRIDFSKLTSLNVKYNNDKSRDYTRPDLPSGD
# No constants are given. Whether binding was seen depends on the method and setting. For some of these results: Binding seen in cells or lysates may run through a third protein. Some binding calls cover weakened binding; strength is not graded here.
# B1: Raver1, full length, in vitro translated (protein, UniProt Q9CW46 1-748)
# chain: MAADVSVTHRPPLSPEAEAEAETPETVDRRAPEQELPPLDPEEIRKRLEHTERQFRNRRKILIRGLPGDVTNQEVHDLLSDYELKYCFVDKYKGTAFVTLLNGEQAEAAINTFHQSRLRERELSVQLQPTDALLCVANLPPSLTQAQFEELVRPFGSLERCFLVYSERTGHSKGYGFAEYMKKDSAARAKSDLLGKPLGPRTLYVHWTDAGQLTPALLHSRCLCVDHLPPGFSDVDALRRALSVVYTPTFCQLACGQDGQLKGFAVLEYETAEMAEAAQERADGQALGDSHLRVSFCAPGPPGRSMLAALIAAQATALNRGKGLLPEPNLLQLLNNLGPSASLQLLLNPLLHGGASGKQGLLGAPPAMPLLSGPALSTALLQLALQSQSQNQSQGQKKPGILGDSPLGTLQAGAQPSNSLLGELSAGGGLAPELPPRRGKPQPLLPPLLGPSGGDREPMGLGPPATQLTPPPAPVGLRGSNHRGLPKDSGPLPTPPGVSLLGEPPKDYRIPLNPYLNLHSLLPSSNLAGKETRGWGGSGRGRRPAEPPLPSPAVPGGGSGSNNGNKAFQMKSRLLSPIASNRLPPEPGLPDSYGFDYPTDVGPRRLFSHPREPTLGAHGPSRHKMSPPPSSFNEPRSGGGSGGPLSHFYSGSPTSYFTSGLQAGLKQSHLNKAVGSSPMGSSEGLLGLGPGPNGHSHLLKTPLGGQKRSFSHLLPSPEPSPEGSYVGQHSQGLGGHYADSYLKRKRIF
# Tests used:
# [1] = molecular target: PRI3-RRM2 chimera (Raver1 PRI3 fused as an N-terminal extension to PTB residues 156-285) (murine | not stated) (UniProt P26599); test: SEC + other: NMR; purified PRI3-RRM2, concentration-dependent; data not shown; both purified
# [2] = molecular target: GST-PTB RRM2 (residues 181-284), mutant K271A (UniProt P26599); test: pull-down; in vitro translated full-length Raver1 pulled down with recombinant GST-PTB RRM2 fusion proteins; only the target purified
# [3] = molecular target: GST-PTB RRM2 (residues 181-284), mutant Y247Q (UniProt P26599); test: as above
# [4] = molecular target: GST-PTB RRM2 (residues 181-284), wild type (UniProt P26599); test: as above
Molecule,binding [1],binding [2],binding [3],binding [4]
PRI3-RRM2 chimera (Raver1 PRI3 fused as an N-terminal extension to PTB residues 156-285) (from UniProt P26599 156-285),binds,,,
B1,,binds,no binding,binds
